For the experiment, the target named is HA-Pldo^WT (Pelado, CG34401) (Drosophila) (UniProt Q9VWN9). Briefly: co-IP; lysates of Drosophila S2 (S2R+) cells transfected with HA-Pldo^WT; immunoprecipitated with anti-HA at 4°C overnight, Agarose-A beads, 5 washes; Western blot.

Protein sequences, listed by entry. Tags and fused reporters are not part of them.
UniProt Q9VWN9: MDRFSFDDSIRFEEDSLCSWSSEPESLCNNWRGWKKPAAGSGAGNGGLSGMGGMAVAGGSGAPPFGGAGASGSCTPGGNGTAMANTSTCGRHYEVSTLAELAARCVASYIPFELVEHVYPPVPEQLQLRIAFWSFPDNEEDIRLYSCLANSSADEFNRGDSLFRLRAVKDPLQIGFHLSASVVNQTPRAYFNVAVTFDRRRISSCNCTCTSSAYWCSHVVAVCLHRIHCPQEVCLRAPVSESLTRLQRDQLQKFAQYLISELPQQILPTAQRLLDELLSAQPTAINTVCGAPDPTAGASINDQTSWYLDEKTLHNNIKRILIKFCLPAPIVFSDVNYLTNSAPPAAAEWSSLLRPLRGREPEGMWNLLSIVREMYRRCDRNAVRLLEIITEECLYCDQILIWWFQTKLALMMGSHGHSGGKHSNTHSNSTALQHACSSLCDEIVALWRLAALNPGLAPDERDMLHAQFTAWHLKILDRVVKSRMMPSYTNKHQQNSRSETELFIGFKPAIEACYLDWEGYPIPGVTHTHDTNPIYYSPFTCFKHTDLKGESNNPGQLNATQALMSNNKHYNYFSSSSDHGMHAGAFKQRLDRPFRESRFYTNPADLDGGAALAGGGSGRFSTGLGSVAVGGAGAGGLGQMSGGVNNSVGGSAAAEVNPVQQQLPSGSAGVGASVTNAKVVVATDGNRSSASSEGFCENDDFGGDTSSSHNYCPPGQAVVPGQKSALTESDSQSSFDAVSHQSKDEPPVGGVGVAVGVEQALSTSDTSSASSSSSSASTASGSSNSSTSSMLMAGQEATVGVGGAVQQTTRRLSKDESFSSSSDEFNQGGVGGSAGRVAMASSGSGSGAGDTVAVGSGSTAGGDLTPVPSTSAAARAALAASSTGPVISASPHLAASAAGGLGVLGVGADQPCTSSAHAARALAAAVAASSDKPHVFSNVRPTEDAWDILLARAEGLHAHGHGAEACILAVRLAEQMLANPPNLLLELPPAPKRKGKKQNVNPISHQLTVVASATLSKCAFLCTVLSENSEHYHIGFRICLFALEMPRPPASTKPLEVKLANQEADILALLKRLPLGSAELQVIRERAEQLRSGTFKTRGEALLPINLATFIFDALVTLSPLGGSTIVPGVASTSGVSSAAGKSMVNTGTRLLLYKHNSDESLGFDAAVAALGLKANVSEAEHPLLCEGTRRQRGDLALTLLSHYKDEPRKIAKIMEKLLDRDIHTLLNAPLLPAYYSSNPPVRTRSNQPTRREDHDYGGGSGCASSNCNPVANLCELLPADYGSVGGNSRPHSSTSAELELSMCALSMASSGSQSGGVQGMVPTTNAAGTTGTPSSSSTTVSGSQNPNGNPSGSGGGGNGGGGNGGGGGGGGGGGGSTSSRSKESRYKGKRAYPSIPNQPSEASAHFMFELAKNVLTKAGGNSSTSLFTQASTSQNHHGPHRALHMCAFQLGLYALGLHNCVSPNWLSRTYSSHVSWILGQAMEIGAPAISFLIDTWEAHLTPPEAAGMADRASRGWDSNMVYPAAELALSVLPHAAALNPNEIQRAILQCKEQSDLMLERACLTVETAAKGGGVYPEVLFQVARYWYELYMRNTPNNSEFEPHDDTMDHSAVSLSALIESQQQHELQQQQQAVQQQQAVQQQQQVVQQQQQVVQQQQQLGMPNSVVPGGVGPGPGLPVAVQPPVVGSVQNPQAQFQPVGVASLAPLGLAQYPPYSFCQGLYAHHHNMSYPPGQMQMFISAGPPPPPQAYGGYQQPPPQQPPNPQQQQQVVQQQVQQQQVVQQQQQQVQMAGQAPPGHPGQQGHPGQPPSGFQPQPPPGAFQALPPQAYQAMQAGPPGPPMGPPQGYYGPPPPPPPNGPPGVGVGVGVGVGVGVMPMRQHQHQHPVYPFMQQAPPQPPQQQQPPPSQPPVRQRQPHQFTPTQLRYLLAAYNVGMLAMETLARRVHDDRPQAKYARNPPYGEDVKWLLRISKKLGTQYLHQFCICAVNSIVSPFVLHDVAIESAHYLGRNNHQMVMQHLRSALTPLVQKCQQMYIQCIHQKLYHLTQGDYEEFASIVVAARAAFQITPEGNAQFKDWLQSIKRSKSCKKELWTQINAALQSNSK

No constants are given. Whether binding was seen depends on the method and setting. In cells and extracts the contact can be indirect. Some entries that bind do so weakly or less than the wild type.

B1: Diaphanous (protein, UniProt P48608 1-1091)
chain: MSRHEKTKSTGGGLLDSLFGRPSKSKGGTISSGTLAHGGRPVSADNYVVPGVEDFEQYIQQLSVAELDAKFLEIIEDMNIPKDKREPLLAKSKEERQKMIMWHLKGKNSLERSANSRFEKPIDYVEYLQNGEHSTHKVYQCVESLRVALTSNPISWIKEFGVAGIGTIEKLLARSKNNASYEKIEFEAIRCLKAIMNNTWGLNVVLNPDQHSVVLLLAQSLDPRKPQTMCEALKLLASFCIVYERNGYEKVLRAITTIAATSFKASERFRPIVDALFASDQQDPKRDLACHSLIFINTLTNTPTDLNFRLHLRCEIMRMGLYDRLDEFTKIVEASNNENLQQHFKIFNEIREDDFEEFVQRFDNVTFNMDDATDCFDVLKNLVTDTTSEPYFLSILQHLLYIRDDFYFRPAYYQLIEECISQIVFHKGYCDPNFENRNFNIDTSLLLDDIVEKAKAKESKRSEEYEKKIEQLESAKQEAEAKAAHLEEKVKLMEANGVAAPSPNKLPKVNIPMPPPPPGGGGAPPPPPPPMPGRAGGGPPPPPPPPMPGRAGGPPPPPPPPGMGGPPPPPMPGMMRPGGGPPPPPMMMGPMVPVLPHGLKPKKKWDVKNPMKRANWKAIVPAKMSDKAFWVKCQEDKLAQDDFLAELAVKFSSKPVKKEQKDAVDKPTTLTKKNVDLRVLDSKTAQNLAIMLGGSLKHLSYEQIKICLLRCDTDILSSNILQQLIQYLPPPEHLKRLQEIKAKGEPLPPIEQFAATIGEIKRLSPRLHNLNFKLTYADMVQDIKPDIVAGTAACEEIRNSKKFSKILELILLLGNYMNSGSKNEAAFGFEISYLTKLSNTKDADNKQTLLHYLADLVEKKFPDALNFYDDLSHVNKASRVNMDAIQKAMRQMNSAVKNLETDLQNNKVPQCDDDKFSEVMGKFAEECRQQVDVLGKMQLQMEKLYKDLSEYYAFDPSKYTMEEFFADIKTFKDAFQAAHNDNVRVREELEKKRRLQEAREQSAREQQERQQRKKAVVDMDAPQTQEGVMDSLLEALQTGSAFGQRNRQARRQRPAGAERRAQLSRSRSRTRVTNGQLMTREMILNEVLGSA
B1: the binding result is given as “binds”.

B2: Chic/Profilin (protein, UniProt P25843 1-126)
chain: MSWQDYVDNQLLASQCVTKACIAGHDGNIWAQSSGFEVTKEELSKLISGFDQQDGLTSNGVTLAGQRYIYLSGTDRVVRAKLGRSGVHCMKTTQAVIVSIYEDPVQPQQAASVVEKLGDYLITCGY
Consider B2, for which the binding result was “binds”.
